Reference: PMC11102450
No constants are given. Whether binding was seen depends on the method and setting. Binding seen in cells or lysates may run through a third protein. Some entries that bind do so weakly or less than the wild type.

Target: T1, MYBBP1A (human (endogenous in A549 and HCC827)) (UniProt Q9BQG0)
T1 sequence: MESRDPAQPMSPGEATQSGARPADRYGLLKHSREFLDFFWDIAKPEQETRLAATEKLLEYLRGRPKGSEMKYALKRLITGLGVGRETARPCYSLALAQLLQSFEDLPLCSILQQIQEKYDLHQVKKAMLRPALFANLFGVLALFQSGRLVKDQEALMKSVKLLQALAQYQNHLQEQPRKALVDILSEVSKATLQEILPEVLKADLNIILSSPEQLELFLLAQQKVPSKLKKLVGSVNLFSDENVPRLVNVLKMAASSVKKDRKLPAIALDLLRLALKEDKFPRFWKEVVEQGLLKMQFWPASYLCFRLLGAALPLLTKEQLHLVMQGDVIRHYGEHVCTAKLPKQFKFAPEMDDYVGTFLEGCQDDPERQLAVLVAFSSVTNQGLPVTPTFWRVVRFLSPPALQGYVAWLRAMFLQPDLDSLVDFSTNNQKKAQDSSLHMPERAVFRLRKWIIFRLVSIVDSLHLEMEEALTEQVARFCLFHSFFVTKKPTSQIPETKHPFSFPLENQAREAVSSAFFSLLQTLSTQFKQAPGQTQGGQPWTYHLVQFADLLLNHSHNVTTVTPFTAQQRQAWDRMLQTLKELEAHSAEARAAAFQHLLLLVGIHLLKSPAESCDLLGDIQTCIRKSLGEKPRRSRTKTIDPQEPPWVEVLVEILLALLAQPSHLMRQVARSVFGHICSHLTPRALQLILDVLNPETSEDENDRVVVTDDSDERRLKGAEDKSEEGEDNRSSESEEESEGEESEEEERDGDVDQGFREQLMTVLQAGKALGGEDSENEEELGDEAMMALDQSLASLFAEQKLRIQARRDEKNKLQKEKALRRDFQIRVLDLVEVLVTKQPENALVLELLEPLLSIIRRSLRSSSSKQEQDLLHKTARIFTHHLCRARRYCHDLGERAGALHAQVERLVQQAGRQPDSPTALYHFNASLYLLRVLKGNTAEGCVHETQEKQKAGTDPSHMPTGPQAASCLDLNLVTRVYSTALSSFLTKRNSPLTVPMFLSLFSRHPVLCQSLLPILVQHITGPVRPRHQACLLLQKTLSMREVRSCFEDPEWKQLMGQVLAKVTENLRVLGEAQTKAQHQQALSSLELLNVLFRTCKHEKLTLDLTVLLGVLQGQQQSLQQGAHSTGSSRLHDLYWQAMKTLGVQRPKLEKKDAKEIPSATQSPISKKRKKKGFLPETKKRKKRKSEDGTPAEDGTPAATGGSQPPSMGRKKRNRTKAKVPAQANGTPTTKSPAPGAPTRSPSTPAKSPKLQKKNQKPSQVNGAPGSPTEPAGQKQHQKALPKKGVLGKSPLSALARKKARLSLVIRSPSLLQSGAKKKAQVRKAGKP
Test: co-IP; endogenous proteins in A549 and HCC827 cell lysates (RIPA buffer with protease inhibitor cocktail); incubated with anti-MYBBP1A or anti-p53 antibody or control IgG at 4 °C overnight, Protein A/G PLUS-Agarose beads 4 h, washed 3 times with RIPA buffer, western blot; GAS5-knockdown cells compared with control cells

binding: binds
Substance: p53 (from UniProt P04637 1-393)
